Results taken from publication PMC12382614, “(Oxidopyridyl)Porphyrins of Different Lipophilicity: Photophysical Properties, ROS Production and Phototoxicity on Melanoma Cells Under CoCl2-Induced Hypoxia” (Antioxidants, 2025).

Columns and labels:
Test in all cases: Cellular uptake kinetics, fluorescence of cell lysates
Type in all cases: cell-based, human
Settings in all cases: 37 °C, incubation up to 24 h
HDF = test system: HDF
A375 = test system: A375
MeWo = test system: MeWo

SMILES | time within which the majority of the porphyrin is internalised (HDF) | time within which the majority of the porphyrin is internalised (A375) | time within which the majority of the porphyrin is internalised (MeWo)
CCCCCCCCCC(=O)Nc1ccc(-c2c3nc(c(-c4ccc[n+]([O-])c4)c4ccc([nH]4)c(-c4ccc[n+]([O-])c4)c4nc(c(-c5ccc[n+]([O-])c5)c5ccc2[nH]5)C=C4)C=C3)cc1 [TOPyP3-C9H19, 5-(4-Decanamidophenyl)-10,15,20-tris(1-oxido-3-pyridyl)porphyrin] | ≤ 6 h | ≤ 6 h | ≤ 12 h
CCCCCCCCCCCCCC(=O)Nc1ccc(-c2c3nc(c(-c4ccc[n+]([O-])c4)c4ccc([nH]4)c(-c4ccc[n+]([O-])c4)c4nc(c(-c5ccc[n+]([O-])c5)c5ccc2[nH]5)C=C4)C=C3)cc1 [TOPyP3-C13H27, 5-(4-Tetradecanamidophenyl)-10,15,20-tris(1-oxido-3-pyridyl)porphyrin] | ≤ 6 h | ≤ 6 h | ≤ 12 h

Some results come without the dose or concentration used.
